Laboratory results taken from PMC11018626, “Sm-like protein Rof inhibits transcription termination factor ρ by binding site obstruction and conformational insulation” (Nature Communications, 2023).
These are yes or no findings as the source states them, for the method shown. For part of these data: Tags and fused reporters may be left off the sequences shown.

Protein sequences, listed by entry. Tags and fused reporters are not part of them. Lines headed by an entry give the natural chain unless they say otherwise; changes in a name come on top.
UniProt P0AG30: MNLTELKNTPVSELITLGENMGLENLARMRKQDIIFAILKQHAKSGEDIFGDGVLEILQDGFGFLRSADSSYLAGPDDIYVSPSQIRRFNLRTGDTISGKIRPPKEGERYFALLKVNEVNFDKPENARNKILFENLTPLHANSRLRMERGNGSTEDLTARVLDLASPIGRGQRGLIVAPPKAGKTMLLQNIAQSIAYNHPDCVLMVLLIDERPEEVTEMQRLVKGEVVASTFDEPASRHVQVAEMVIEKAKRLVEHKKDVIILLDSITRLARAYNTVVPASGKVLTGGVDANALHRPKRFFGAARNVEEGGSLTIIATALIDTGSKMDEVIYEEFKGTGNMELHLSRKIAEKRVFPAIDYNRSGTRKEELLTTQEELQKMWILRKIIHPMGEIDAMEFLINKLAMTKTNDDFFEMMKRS

Key:
[1] = target: Transcription termination factor ρ R88E (E. coli) (E. coli) (UniProt P0AG30); assay: SEC; analytical SEC, Superdex S200 PC 3.2 column, 5 µM ρ and 90 µM Rof/variants mixed in reaction buffer (20 mM Tris-HCl pH 8.0, 120 mM KOAc, 5 mM Mg(OAc)2, 2 mM DTT), 32 °C 10 min, run at 4 °C; fractions analysed by SDS-PAGE; both purified
[2] = target: Transcription termination factor ρ, wild type (E. coli) (E. coli) (UniProt P0AG30); assay: as above

Row | Binder | binding [1] | binding [2]
1 | Rof, wild type, tag-less (E. coli) (natural protein, Rof (YaeO), E. coli; codon-optimised rof gene; the C-terminal residue is printed as S84 (84-residue form); the residue numbers used (I8 to S84) fit the 84-residue form; also called Rof^wt; ecRof; source: E. coli RIL (BL21), purified (Ni2+-NTA, TEV protease, Superdex 75)) MNDTYQPINCDDYDNLELACQHHLMLTLELKDGEKLQAKASDLVSRKNVEYLVVEAAGETRELRLDKITSFSHPEIGTVVVSES | no binding (tested: 5 µM ρ and 90 µM Rof) | 
2 | Rof D14A (E. coli) (natural protein) MNDTYQPINCDDYANLELACQHHLMLTLELKDGEKLQAKASDLVSRKNVEYLVVEAAGETRELRLDKITSFSHPEIGTVVVSES |  | no binding (tested: 5 µM ρ and 90 µM Rof variant)
3 | Rof Y13A (E. coli) (natural protein) MNDTYQPINCDDADNLELACQHHLMLTLELKDGEKLQAKASDLVSRKNVEYLVVEAAGETRELRLDKITSFSHPEIGTVVVSES |  | no binding (tested: 5 µM ρ and 90 µM Rof variant)
